Assay results from US20250075147A1, “FRAGRANCE AND FLAVOR COMPOSITIONS COMPRISING NEW FLAVOR AND FRAGRANCE INGREDIENTS” (priority 2023, published 2025).

Experiments:
odor evaluation panel = test: Odor evaluation panel rating of odorants by Rate-All-That-Apply (RATA) method with 55-word odor lexicon, plus intensity and pleasantness; parameters: species or system human; settings: for Floral: mean panelist score for odor label floral (RATA); for Fruity: mean panelist score for odor label fruity (RATA); for Spicy: mean panelist score for odor label spicy (RATA); for Sweet: mean panelist score for odor label sweet (RATA); for Pleasantness: mean panelist score for odor pleasantness
[1] = Evaluation by trained and/or certified flavor or fragrance chemists or master perfumers; categorization by commercial prospect; settings: for Rating: category of commercial prospect, (A) highest > (B) > (C) > (D) lowest, (E) requires further study; for Rating (category of commercial prospect): evaluation by trained flavor or fragrance chemists or master perfumers

Compound | Floral (odor evaluation panel) | Fruity (odor evaluation panel) | Spicy (odor evaluation panel) | Sweet (odor evaluation panel) | Pleasantness (odor evaluation panel) | Rating [1] | Rating (category of commercial prospect) [1]
COC(=O)[C@H]1COC(C)(C)O1 [Compound 335, methyl (R)-(+)-2,2-Dimethyl-1,3-dioxolane-4-carboxylate] | 0.562 | 0.719 | 0.125 | 1.406 | 5.797 | (D) | 
CCC#CCO [Compound 47, pent-2-yn-1-ol] | 0.156 | 0.219 | 0.344 | 0.312 | 4.519 | (B) | 
CCCCC(CC)(CO)CO [Compound 812, 2-butyl-2-ethylpropane-1,3-diol] | 0.2 | 0.229 | 0.114 | 0.4 | 4.766 |  | (D)
COC(=O)CCc1ccc(O)cc1 [Compound 968, methyl 3-(4-hydroxyphenyl)propanoate] | 0.781 | 0.125 | 0.438 | 0.906 | 4.469 |  | (B)
CCC(=O)c1cccc(O)c1 [Compound 634, 1-(3-hydroxyphenyl)propan-1-one] | 0.226 | 0.323 | 0.161 | 0.71 | 4.326 |  | (A)
COC(=O)[C@@H](C)Oc1ccc(O)cc1 [Compound 386, methyl (2R)-2-(4-hydroxyphenoxy)propanoate] | 0.371 | 0.257 | 0.086 | 0.971 | 5.471 | (D) | 
NCCOc1ccccc1 [Compound 251, 2-phenoxyethanamine] | 0 | 0 | 0.125 | 0.062 | 5.234 | (D) | 
C=CCC1CCCCC1=O (stereo not drawn) [Compound 613, 2-prop-2-enylcyclohexan-1-one] | 0.062 | 0.094 | 0 | 1.125 | 5.119 |  | (A)
C1=C(N2CCOCC2)CCCC1 [Compound 129, 4-(cyclohexen-1-yl)morpholine] | 0 | 0 | 0.3 | 0.333 | 0.897 | (D) | 
CC1(C)CCCC(=O)C1 [Compound 153, 3,3-dimethylcyclohexan-1-one] | 0.333 | 0.583 | 0 | 0.611 |  | (C) | 
O=c1cccccc1O [Compound 947, 2-hydroxycyclohepta-2,4,6-trien-1-one] | 0 | 0.156 | 0.75 | 1.312 | 4.647 |  | (D)
N#CCSc1ccccc1 [Compound 527, 2-phenylsulfanylacetonitrile] | 0.088 | 0 | 0.294 | 0.412 | 4.382 | (D) | 
c1ccc(-n2cccc2)cc1 [Compound 595, 1-phenylpyrrole] | 0.333 | 0.111 | 0.028 | 0.333 |  |  | (D)
Cn1ccnc1C=O [Compound 146, 1-methylimidazole-2-carbaldehyde] | 0.242 | 0.061 | 0.242 | 0.485 | 4.824 | (D) | 
CC1CCCC(C)C1 (stereo not drawn) [Compound 590, 1,3-dimethylcyclohexane] | 0.394 | 0.818 | 0 | 1 | 6.109 |  | (D)
Cc1ccccc1N1CCNCC1 [Compound 955, 1-(2-methylphenyl)piperazine] | 0 | 0 | 0 | 0 | 2.672 |  | (D)
Nc1nc(=S)ss1 [Compound 246, 5-amino-1,2,4-dithiazole-3-thione] | 0 | 0 | 0.281 | 0.125 | 4.744 | (D) | 
Nc1ccccc1-c1ccccc1 [Compound 551, 2-phenylaniline] | 0.188 | 0.25 | 0.281 | 0.5 | 4.206 | (D) | 
CN1C2CCCC1CC(=NO)C2 [Compound 297, N-(9-methyl-9-azabicyclo[3.3.1]nonan-3-ylidene)hydroxylamine] | 0.188 | 0.344 | 0.094 | 0.281 | 5.025 | (D) | 
Cc1cc(O)cc(C)c1C=O [Compound 575, 4-hydroxy-2,6-dimethylbenzaldehyde] | 0.125 | 0.219 | 0.094 | 0.594 | 4.397 |  | (D)
CC(=O)OC1=CCCCC1 [Compound 699, cyclohexen-1-yl acetate] | 0.771 | 1.486 | 0.171 | 1.571 | 5.903 |  | (A)
Cc1cccc(C(=O)O)c1 [Compound 999, 3-methylbenzoic acid] | 0.083 | 0 | 0.028 | 0.056 |  |  | (D)
Cc1c[nH]c(=O)c(N)c1 [Compound 439, 3-amino-5-methyl-1H-pyridin-2-one] | 0.333 | 0 | 0.273 | 0.576 | 4.355 | (D) | 
Cc1n[nH]c(C)n1 [Compound 763, 3,5-dimethyl-1H-1,2,4-triazole] | 0.533 | 0.5 | 0.367 | 1.367 | 5.807 |  | (D)
Nc1ccccc1CCO [Compound 373, 2-(2-aminophenyl)ethanol] | 0.562 | 0.25 | 0 | 0.594 | 5.078 | (D) | 
C1CSCCN1 [Compound 800, thiomorpholine] | 0.031 | 0 | 0.125 | 0 | 4.222 |  | (D)
Cc1cc(C)c(C)c(C)c1C [Compound 61, 1,2,3,4,5-pentamethylbenzene] | 0.226 | 0.032 | 0.258 | 0.097 | 3.997 | (A) | 
